Assay results taken from paper PMC9110426, “Cooperative regulation of PBI1 and MAPKs controls WRKY45 transcription factor in rice immunity”.

Protein sequences, listed by entry. Tags and fused reporters are not part of them. Lines headed by an entry give the natural chain unless they say otherwise; changes in a name come on top.
UniProt Q5ZCD5: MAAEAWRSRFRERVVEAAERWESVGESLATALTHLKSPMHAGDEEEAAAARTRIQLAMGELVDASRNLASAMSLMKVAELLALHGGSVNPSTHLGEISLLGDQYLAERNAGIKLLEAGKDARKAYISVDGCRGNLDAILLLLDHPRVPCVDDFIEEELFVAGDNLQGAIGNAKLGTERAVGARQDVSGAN

Tests used:
[1] = molecular target: PBI1-LgBiT (rice (Oryza sativa cv. Nipponbare)); test: split reporter; split NanoLuc luciferase complementation in rice protoplasts, 18 h at 30 °C; N-Luc to F-Luc ratio; Fig. 6d with or without co-expressed MKK4^DD
[2] = molecular target: PBI1-Vc (rice (Oryza sativa cv. Nipponbare)) (UniProt Q5ZCD5); test: split reporter; BiFC with Venus halves (Vn, Vc) in rice protoplasts; fluorescence microscopy
GST-PBI1 (rice) = test: pull-down; GST-PBI1 or GST on glutathione Sepharose 4B beads, incubated with wheat germ synthesised HA-WRKY proteins in buffer A (50 mM Tris pH 7.4, 150 mM NaCl, 5 mM EDTA, 5% glycerol, 0.1% Triton X-100) for 12 h at 4 °C; washed three times with buffer A; blot with α-HA; only the target purified
[3] = molecular target: GFP-PBI1 (rice (Oryza sativa cv. Nipponbare)); test: co-IP; rice protoplasts expressing GFP-PBI1 and Myc-tagged WRKY45; GFP-Trap beads 2 h; 50 mM Tris-HCl pH 7.5, 150 mM NaCl, 10% glycerol, 5 mM DTT, 2% IGEPAL CA-630; blot with α-Myc
PUB44-LgBiT (rice) = test: split reporter; split NanoLuc luciferase complementation in rice protoplasts, 18 h at 30 °C; N-Luc to F-Luc ratio; Fig. 6d with or without co-expressed MKK4^DD

B1: WRKY45^175–326-SmBiT (domain or fragment, UniProt Q5W6D6 175-326)
chain: HTCRDPATAPIIAAHVIHQVAAGDNDDGCGGLQAGSRLISFVAAPAAPVDAAAAPTTSTITTVTAPGPLLQPLKVEGGVGSSDQEEVLSSLTPGSSAARGGGGGGGVAGPFGPDQGDVTSSLHWSYDAVAGMEFFKNDEVVFDLDDIMGLSF
binding [1]: binds

B2: WRKY45-Vn (protein, UniProt Q5W6D6 1-326)
chain: MTSSMSPAPAPAYAQVMEDMEKGKELAAQLQGLLRDSPEAGRFVDQILHTFSRAMRALDKAAVSAAGGEGSEVQSEVTCGGGASAGGKRKAPAADRKANCRRRTQQSSGNSVVVKNLDDGQAWRKYGQKEIQNSKHPKAYFRCTHKYDQLCTAQRQVQRCDDDPASYRVTYIGEHTCRDPATAPIIAAHVIHQVAAGDNDDGCGGLQAGSRLISFVAAPAAPVDAAAAPTTSTITTVTAPGPLLQPLKVEGGVGSSDQEEVLSSLTPGSSAARGGGGGGGVAGPFGPDQGDVTSSLHWSYDAVAGMEFFKNDEVVFDLDDIMGLSF
binding [2]: binds

B3: HA-WRKY45 (protein, UniProt Q5W6D6 1-326)
chain: B2 chain
binding (GST-PBI1 (rice)): binds

B5: WRKY45-SmBiT (protein, UniProt Q5W6D6 1-326)
chain: B2 chain
binding (PUB44-LgBiT (rice)): binds weakly
binding [1]: binds

Continued, values first:

binding [3]: binds
B4: Myc-WRKY45 (in rice protoplasts) (protein, UniProt Q5W6D6 1-326)
chain: B2 chain

binding [1]: binds
B6: WRKY45^DD-SmBiT (protein, UniProt Q5W6D6 1-326)
chain: B2 chain with S294D, S299D

Positions count from the first letter of the chain named. These are yes or no findings as the source states them, for the method shown. In cells and extracts the contact can be indirect. Binding calls can cover weak binding; strength is not graded here. For some of these results: Tags and fused reporters may be left off the sequences shown. Each block holds one binder with its values, some of them ahead of it.
